PubChem BioAssay AID686938, Drosophila RNAi Screening Center, 2013
Screen: 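Knock-downs reducing store-operated calcium influx in Drosophila cells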 (primary screen). System: Drosophila S2R+ cells. Knock-down reagent: long dsRNA against Drosophila genes, about 0.25 µg dsRNA per well, roughly 10,000 cells. Time to read-out: 5 days of knock-down before the calcium assay. Challenge: thapsigargin (SERCA pump blocker) to empty calcium stores; entry signal taken 4 min after adding it. Detection: 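Per-well fluo-4 fluorescence in two replicates, unnormalised, measured in resting cells and 4 min after store depletion by the SERCA blocker thapsigargin; ratio of the two present in few wells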. Direction: calcium entry signal: higher = stronger calcium signal after store depletion; resting calcium signal: higher = higher resting calcium signal. Hit rule: 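Called when the plate z-score of the entry-to-rest ratio, mean of duplicates, falls below −3; wells with low overall dye signal (Fmax z below −2) or more than five off-targets excluded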. Meaning of the calls: active = strongly reduced calcium entry; inactive = no strong reduction.
The screen tested about 23,000 reagents; this is an unselected part of those that have a named target and a result. Of all reagents, 75 (0.33%) are marked active. 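Raw plate signals without normalisation; calls rest on plate z-scores that were not deposited; ratio present for only 364 wells.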 Entries without a mark were called inactive. No sequences are given here. Not given: the dose of the treatment.

predicted target	DRSC id	calcium entry signal, replicate 1 (fluorescence units)	calcium entry signal, replicate 2 (fluorescence units)	resting calcium signal, replicate 1 (fluorescence units)	resting calcium signal, replicate 2 (fluorescence units)
CG14220	DRSC19577	3.59e7	2.51e7	1.92e7	1.28e7
CG31676	DRSC02387	4.69e7	5.08e7	2.37e7	2.17e7
CG14731	DRSC14952	3.55e7	3.88e7	1.83e7	1.98e7
CG32982	DRSC01059	2.63e7	2.90e7	1.55e7	1.62e7
CG32982	DRSC02677	2.71e7	3.50e7	1.25e7	1.39e7
CG32982	DRSC03268	2.41e7	4.84e7	1.61e7	2.27e7
CG32982	DRSC03269	4.03e7	5.63e7	1.75e7	2.44e7
CG32982	DRSC21912	3.19e7	3.97e7	1.62e7	2.21e7
CG17270	DRSC15209	4.34e7	3.50e7	1.97e7	1.54e7
Mettl2	DRSC08398	3.69e7	3.37e7	1.74e7	1.68e7
Mco1	DRSC02720	3.11e7	4.42e7	1.57e7	1.98e7
CG3032	DRSC18266	3.48e7	4.15e7	1.68e7	2.00e7
Recs1	DRSC16545	2.01e7	4.18e7	9.93e6	5.38e7
Brd7-9	DRSC03017	5.73e7		2.97e7	
CG5323	DRSC06929	5.82e7	5.33e7	2.67e7	2.68e7
Or45b	DRSC07488	3.74e7	2.58e7	1.79e7	1.51e7
LSm3	DRSC15920	5.26e7	5.35e7	2.59e7	2.26e7
CG17549	DRSC02625	4.36e7		2.25e7	
AANATL4	DRSC06774	4.28e7	4.48e7	1.91e7	2.09e7
shop	DRSC20030	3.51e7	4.08e7	1.68e7	1.75e7
CG31806	DRSC02787	4.10e7	2.66e7	1.89e7	1.32e7
CG1750	DRSC15240	2.71e7	2.31e7	1.60e7	1.16e7
nonC	DRSC18366	3.04e7	3.47e7	1.42e7	1.52e7
nonC	DRSC18367	2.72e7	4.22e7	1.34e7	1.77e7
Fife	DRSC08262	4.54e7	3.85e7	2.46e7	2.10e7
Fife	DRSC08409	4.56e7	4.84e7	2.25e7	2.15e7
Fife	DRSC08499	4.14e7	4.68e7	2.04e7	2.08e7
CG14105	DRSC10107	2.98e7	3.76e7	1.61e7	1.86e7
Ptip	DRSC10660	4.79e7	4.61e7	2.01e7	1.92e7
Ptip	DRSC11048	5.01e7	4.27e7	2.43e7	2.11e7
CG43089	DRSC08060	3.17e7	4.46e7	1.75e7	2.09e7
E5	DRSC13000	4.34e7	3.86e7	2.21e7	1.60e7
E5	DRSC16585	3.10e7	3.91e7	1.89e7	8.33e7
E5	DRSC23157	3.16e7	3.13e7	1.51e7	1.51e7
Rel	DRSC16819	3.26e7	3.91e7	1.33e7	1.58e7
CG32488	DRSC08549	2.88e7	1.77e7	1.41e7	1.09e7
CG32488	DRSC21537	3.42e7	4.79e7	1.87e7	2.15e7
CG43260 (retired record)	DRSC19313	2.93e7	4.01e7	1.50e7	1.84e7
Dnaaf4	DRSC02405	3.25e7	5.30e7	1.60e7	2.14e7
HmgZ	DRSC03888	3.08e7	3.63e7	1.52e7	3.29e7
HmgZ	DRSC04620	5.26e7	1.73e7	2.60e7	9.82e6

Not a retest: 7 of the entries above.
predicted target	DRSC id	calcium entry signal, replicate 1 (fluorescence units)	calcium entry signal, replicate 2 (fluorescence units)	resting calcium signal, replicate 1 (fluorescence units)	resting calcium signal, replicate 2 (fluorescence units)
AANATL4	DRSC06774	4.28e7	4.48e7	1.91e7	2.09e7
shop	DRSC20030	3.51e7	4.08e7	1.68e7	1.75e7
CG31806	DRSC02787	4.10e7	2.66e7	1.89e7	1.32e7
CG1750	DRSC15240	2.71e7	2.31e7	1.60e7	1.16e7
nonC	DRSC18366	3.04e7	3.47e7	1.42e7	1.52e7
nonC	DRSC18367	2.72e7	4.22e7	1.34e7	1.77e7
Fife	DRSC08262	4.54e7	3.85e7	2.46e7	2.10e7
